Results reported in PubChem BioAssay AID1347076 (National Center for Advancing Translational Sciences (NCATS), 2019).
Among all 400,000 compounds or so, about 13,000 (3.2%) were called active. This list was built around the results that the source calls inconclusive (neither active nor inactive); the mix of calls is not that of the screen. Calls follow the shape of the dose curve; as a rule, active = well fitted cell-killing curve with a large enough effect; inconclusive = small, poorly fitted or top-dose-only effect, or effect the other way; inactive = flat fitted curve, though single readings scatter. Where the call is inconclusive, the potency comes from a doubtful curve fit.

Test: qHTS assay for MDR1-selective chemotherapeutics: Primary screen using the drug-selected MDR subline cells KB-V1; also: nearly all actives have a fitted effect of over 60% in size
Conditions: KB-V1 MDR cells viability, CellTiter-Glo, 72 h; series mostly up to 46.1 µM
Outline: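 Drug-selected KB-V1 cells, grown in DMEM lacking phenol red with 10% FBS, receive compound titrations; after three days at 37 degrees C, surviving cell ATP is quantified by CellTiter-Glo luminescence and responses normalized and curve-fitted.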
Potency is read from the fitted curve at half-maximal effect.

Row | Compound | Potency
1 | COc1ccccc1C(=O)NC(=S)NNC(=O)c1sc2ccccc2c1Cl | inactive
2 | O=C(NCCc1ccccc1)C(=O)NCC(c1cccs1)S(=O)(=O)c1cccs1 (centres undefined) | inactive
3 | CCCc1nc(SCC(=O)c2ccc(F)cc2)c2ccccc2n1 | inconclusive: 20.6 µM [cytotoxic, single point]
4 | CCOC(=O)[C@]12CCCC=C1N(Cc1ccc(Cl)cc1Cl)C(=O)[C@H](CC(=O)NCc1cccc(C(F)(F)F)c1)C2 | active: 16.4 µM
5 | CCOC(=O)c1c(C)[nH]c(C)c1S(=O)(=O)N1CCC(C(=O)Nc2ccccc2CC)CC1 | inconclusive: 29.1 µM [rising, single point]
6 | Clc1ccc2nnnc(-c3ccccc3)c2c1 | active: 10.3 µM
7 | COc1cc(/C=C2\SC(=S)N(CCC(=O)N3CCCCC3)C2=O)cc(OC)c1OC | inconclusive: 23.1 µM [cytotoxic, single point]
8 | O=C(O)Cc1sc(-c2ccccc2)nc1-c1cccs1 | inconclusive: 29.1 µM [rising, single point]
9 | Cn1c(=O)cc(SCC(=O)NCc2ccc(F)cc2)c2cc(Cl)ccc21 | inconclusive: 20.6 µM [cytotoxic, single point]
10 | CC(C)(C)n1nnnc1C(c1ccccc1)N1CCN(C/C=C/c2ccccc2)CC1 (centres undefined) | inactive
11 | Fc1ccc(-n2ncc3c(N4CCC(Cc5ccccc5)CC4)ncnc32)cc1 | inconclusive: 20.6 µM [rising, partial curve]
12 | CN1CCN(C(=O)CCCN2C(=O)/C(=C/c3ccccc3)SC2=S)CC1 | inconclusive: 29.1 µM [cytotoxic, single point]
13 | CC(=O)NC(CCc1ccc(Cl)c(Cl)c1)c1cccc(O)c(=O)c1 (centres undefined) | active: 8.2 µM
14 | Cc1ccc(-c2nsc(SCC(=O)Nc3ccc4c(c3)OCO4)n2)cc1 | inconclusive: 29.1 µM [rising, single point]
15 | CC(=O)Nc1cc(O)cc(O)c1 | inactive
16 | COc1cccc(-c2c(-c3cc(OC)cc(OC)c3)n(C)c3ccc(-c4ccc(OC)nc4)cc23)c1 | inconclusive: 29.1 µM [rising, single point]
17 | CCN(CC)c1ccc(C(=O)NNC(=O)c2ccc3c(=O)n4c(nc3c2)CCC4)cc1 | inconclusive: 32.6 µM [rising, single point]
18 | CCc1nnc(NS(=O)(=O)c2ccc(NC(=S)NC(=O)/C=C/c3ccc(OC)cc3)cc2)s1 | inactive
19 | CCCCCCCN1C2=NCCCN2c2ccccc21 | inconclusive: 20.6 µM [cytotoxic, partial curve, poor fit]
20 | CC(C)CNC(=S)NNC(=O)c1ccc(OC(F)F)cc1 | inconclusive: 18.4 µM [cytotoxic, single point]
21 | CCOC(=O)C1CCCN(C(=O)c2ccc(Cn3c(=S)[nH]c4cc(C(=O)OC)ccc4c3=O)cc2)C1 (centres undefined) | inconclusive: 18.4 µM [cytotoxic, single point]
22 | O=C1C(=C2CCc3ccccc32)Cc2ccccc21 | inactive

Molecules shown so far with a halogen (eight):
Row | Compound | Potency
1 | COc1ccccc1C(=O)NC(=S)NNC(=O)c1sc2ccccc2c1Cl | inactive
3 | CCCc1nc(SCC(=O)c2ccc(F)cc2)c2ccccc2n1 | inconclusive: 20.6 µM [cytotoxic, single point]
4 | CCOC(=O)[C@]12CCCC=C1N(Cc1ccc(Cl)cc1Cl)C(=O)[C@H](CC(=O)NCc1cccc(C(F)(F)F)c1)C2 | active: 16.4 µM
6 | Clc1ccc2nnnc(-c3ccccc3)c2c1 | active: 10.3 µM
9 | Cn1c(=O)cc(SCC(=O)NCc2ccc(F)cc2)c2cc(Cl)ccc21 | inconclusive: 20.6 µM [cytotoxic, single point]
11 | Fc1ccc(-n2ncc3c(N4CCC(Cc5ccccc5)CC4)ncnc32)cc1 | inconclusive: 20.6 µM [rising, partial curve]
13 | CC(=O)NC(CCc1ccc(Cl)c(Cl)c1)c1cccc(O)c(=O)c1 (centres undefined) | active: 8.2 µM
20 | CC(C)CNC(=S)NNC(=O)c1ccc(OC(F)F)cc1 | inconclusive: 18.4 µM [cytotoxic, single point]

Further structures follow.

Row | Compound | Potency
23 | CC(=O)c1ccc(S(=O)(=O)N2CCNC(=O)C2)cc1 | inactive
24 | CCOc1ccc(Cn2c(=O)sc3ccccc32)cc1OC | active: 11.6 µM
25 | CCOC(=O)c1cc(C(C)=O)c(=O)[nH]c1C | inconclusive: 29.1 µM [rising, single point]
26 | Cc1ccc(S(=O)(=O)Nc2ccccc2C(C(=O)OC(C)(C)C)C(=O)OC(C)(C)C)cc1 | inconclusive: 11.6 µM [cytotoxic, partial curve, poor fit]
27 | CN(C)S(=O)(=O)c1cccc(NC(=O)CNC2CCCCC2)c1 | inconclusive: 18.4 µM [cytotoxic, partial curve, poor fit]
28 | Cc1c(OCC(=O)NCC2CCC(C(=O)NCCCO)CC2)ccc2c(-c3ccccc3)cc(=O)oc12 (centres undefined) | inconclusive: 16.4 µM [rising, single point]
29 | COc1cccc(-c2nnc(-c3ccc(C)o3)o2)c1 | inconclusive: 20.6 µM [cytotoxic, single point]
30 | COc1cc(C2Nc3ccc4ncccc4c3C3=C2C(=O)CCC3)cc(OC)c1OC (centres undefined) | inactive
31 | Oc1ccc2ccccc2c1CNc1ccccc1 | inconclusive: 29.1 µM [cytotoxic, single point]
32 | O=C(NC1CCCCC1)c1cc([N+](=O)[O-])ccc1N1CCCCC1 | active: 9.2 µM
33 | COCCNC(=O)C1CCCN(Cc2ccccc2)CC1 (centres undefined) | inconclusive: 20.6 µM [rising, single point]
34 | Cc1ccsc1/C=N/Nc1nc(=O)[nH]nc1C | inconclusive: 32.6 µM [cytotoxic, single point]
35 | CC(=O)N(C)c1ccc(N=Nc2ccc3ncccc3c2)cc1 | inconclusive: 32.6 µM [cytotoxic, single point]
36 | COc1ccccc1NC(=S)N(CCN1CCCCCC1)Cc1cccs1 | inconclusive: 5.17 µM [cytotoxic, partial curve]
37 | Cc1ccccc1-c1n[nH]c(=S)n1/N=C/c1c(C)nn(-c2ccccc2)c1C | inconclusive: 16.4 µM [cytotoxic, single point]
38 | OC(c1cc(C(F)(F)F)nc2c(Cl)cc(Cl)cc12)C1CCCCN1 (centres undefined) | inconclusive: 18.4 µM [cytotoxic, single point]
39 | CN1/C(=C/C=C(C#N)C#N)C(C)(C)c2ccccc21 | inconclusive: 20.6 µM [rising, partial curve, poor fit]
40 | Cc1ccc(NCc2nnc(SCC(=O)N(Cc3ccccc3)C(C)(C)C)o2)c(C)c1 | inconclusive: 16.4 µM [cytotoxic, single point]
41 | COc1cc(C2CC(=O)N(c3ccc(C)cc3)C(=O)C2)cc(OC)c1OC | active: 4.61 µM
42 | O=C(Oc1cc(Cl)ccc1Cl)C1=CC=CN2CCS(=O)(=O)N=C12 | inconclusive: 29.1 µM [rising, single point]
43 | O=C(c1ccc(Cl)cc1)N1CCN(c2ccnc3cc(Cl)ccc23)CC1 | inconclusive: 3.66 µM [cytotoxic, full curve]
44 | O=C(COc1ccccc1Cl)N(Cc1ccco1)C1CCS(=O)(=O)C1 (centres undefined) | inconclusive: 29.1 µM [cytotoxic, single point]
